Values of other authors as cited in patent publication US5861387A, “Controlled release systems and low dose androgens” (Endorecherche Inc., priority 1995, dated 1999).
At least one compound was matched to its structure with a doubt left.

Tested on: endometrial cancer
Settings: high dose; cited from earlier work

CC(=O)O[C@]1(C(C)=O)CC[C@H]2[C@@H]3C=C(C)C4=CC(=O)CC[C@]4(C)[C@H]3CC[C@@]21C [megestrol acetate, 17α-acetoxy methyl-pregna-4,6-diene-3,20-dione]
treatment of endometrial cancer: successfully used
